Assay [1] concerns the target MICA.008.a3.T204-S297.G243N.mIgG2a.Glyco14 (human; mouse) (UniProt Q29983). Description: ELISA, coated variant. (An ELISA detects its analyte on a solid surface through an enzyme-linked reagent.)
The target in assay [2] is MICA.008.a3.T204-S297.R279N.mIgG2a.Glyco16 (human; mouse) (UniProt Q29983). Description: ELISA, coated variant.
Assay [3] concerns the target MILL1-MICA chimera.murine IgG2a Fc fusion (mouse MILL1 with grafted human MICA*008 residues). In words: ELISA, coated chimera.
Assay [4] addresses MICA.008.a3.T204-S297.H248N.mIgG2a.Glyco15 (human; mouse) (UniProt Q29983). In words: ELISA, coated variant.

The chains behind the UniProt entries cited, without tags or fusion partners. Where a name states a change or a piece, a line headed by the entry shows the natural chain unless it says otherwise.
UniProt Q29983: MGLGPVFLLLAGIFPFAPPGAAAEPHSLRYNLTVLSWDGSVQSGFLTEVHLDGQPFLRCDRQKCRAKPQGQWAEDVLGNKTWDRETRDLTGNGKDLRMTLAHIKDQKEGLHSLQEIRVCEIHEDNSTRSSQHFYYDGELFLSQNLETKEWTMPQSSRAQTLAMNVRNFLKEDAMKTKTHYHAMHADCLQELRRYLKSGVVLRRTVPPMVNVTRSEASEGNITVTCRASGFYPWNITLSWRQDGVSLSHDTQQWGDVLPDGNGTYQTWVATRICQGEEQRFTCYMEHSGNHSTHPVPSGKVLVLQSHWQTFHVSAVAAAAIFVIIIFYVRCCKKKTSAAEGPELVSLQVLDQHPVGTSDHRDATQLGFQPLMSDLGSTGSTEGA

No constants are given. Whether binding was seen depends on the method and setting.

B1: 32D2 (antibody, V domains shown)
VH: DVHLVESGGGLVQPGGSRKLSCAASGFTFNTFGMNWVRQAPEKGLEWVAYINSGSNTIYYADTVKGRFTISRDNPKNTLFLQMTSLRSEDTAMYYCTRWEPVTGGFSYWGQGTLVTVSA
VL: QIVLTQSPAFKSSSLGERVTMTCTASSSISSSYLHWYQQKPGSSPKLWIYTTSNLASGVPARFSGSGSGTSYSLTISTMEAEDAATYYCHQHHRSPFTFGSGTKVEIK
Regarding B1, the binding entry in assay [1], in assay [2] and in assay [3] was “no binding (tested: ELISA value not >0.65)” in each case.

B2: 6E12.5 (antibody, V domains shown)
VH: EVQLVESGGGLVKPGGSLKLSCAASGFTFSDYYMYWVRQTPEKRLEWVATISDGITYTYYSDSVRGRFTISRDNAENTLYLQMSSLKSEDTAMYYCSKGGGSTARGALDFWGQGTSVTVSS
VL: DIQMNQSPSSLSASLGDTITITCHASQNIHVWLSWYQQKPGNIPKLLIYGASHLHTGVPSRFSGRGSGTGFTLTISSLQPEDIATYYCLQGQSYPLTFGSGTKVEIK
Turning to B2, the binding entry in assay [4] and in assay [3] was “no binding (tested: ELISA value not >0.65)” each time.

B3: 9C9.5.6 (antibody, V domains shown)
VH: QVQLKESGPGLVAPSQSLSITCTVSGFSLNGQGVNWVRQPPGKGLEWLGMIWGDGSTDYNSALKSRLSISKDNSRSQVFLKMNSLQTDDTARYYCARGAHYGKRWYFDVWGAGTTVTVSS
VL: DIQMTQTTSSLSASLGDRVTISCSASQNINNYLNWYQQKPHGTVKLLIYYTSSLPSGVPSRFSGSGSGTDYSLTISNLEPEDIASYYCQQYSKLPPTFGGGTKVEIK
As to B3, the binding entry in assay [3] is “no binding (tested: ELISA value not >0.65)”.

B4: 3C9.10 (antibody, V domains shown)
VH: QVQLKESGPGLVAPSQSLSITCTVSGFSLTGSGVNWVRQPPGKGLEWLGMIWGDGNTDYNSALKSRLSISKDNSKSQIFLKMNSLQTDDTARYYCARGAYYGKRWYFDVWGAGTTVTVSS
VL: DIQMTQTTSSLSASLGDRVTISCSASQGISNYLNWYQQKPDGTVKLLIYYTSSLHSGVPSRFSGSGSGTDYSLTISNLEPEDIATYYCQQYSKLPPTFGGGTKVEIK
As to B4, the binding result in assay [4] and in assay [3] was “no binding (tested: ELISA value not >0.65)” in each case.

B5: 1E6.1.3 (antibody, V domains shown)
VH: QVQLKESGPGLVAPSQSLSITCTVSGFSLTGSGVNWVRQPPGQGLEWLGMIWGDGNTDYNSALKSRLSISKDNSKSQVFLKMNSLQTDDTARYYCARGAHYGKRWYFDVWGAGTTVTVSS
VL: DIQMTQTTFSLSASLGDRVTISCSASQGINNYLNWYQQRPDGTVKLLIYYTSTLPSGVPSRFSGSGSGTDYSLTISNLEPEDIASYYCQQYSKLPPTFGGGTKVEIK
For B5, the binding result in assay [2], in assay [4] and in assay [3] was “no binding (tested: ELISA value not >0.65)” throughout.

B6: 7A3.1.9 (antibody, V domains shown)
VH: QVQLKESGPGLVAPSQSLSITCTVSGFALTGSGVNWVRQPPGKGLEWLGMIWGDGNTDYNSALKSRLSISKDNSKSQIFLKMNSLQTDDTARYYCARGAHYGKRWYFDVWGAGTTVTVSS
VL: DIQMTQTTSSLSASLGDRVTISCSASQGINNYLNWYQQKPDGTVKLLIYYTSSLPSGVPSRFSGSGSGTDYSLTISNLEPEDIATYYCQQYSKLPPTFGGGTKVEIK
For B6, the binding result in assay [2], in assay [4] and in assay [3] was “no binding (tested: ELISA value not >0.65)” throughout.

B7: 12H10 (antibody, V domains shown)
VH: DVQLQESGPGLVKPSQPLSLTCTVTGYSITSNYAWNWIRQFPGDKLEWMGYISSSGITKSNPSLKSRISITRDTSKNQFFLQLNSLTTEDTATYYCSRWSNWSFDVWGAGTTVTVSS
VL: DIQMTQTPSSLSVSLGDRVTINCRASQDIHNYFNWYQQKPDGTIKLLIYYTSRFHSGVPSRFSGSGSGTDYSLTISNLEEEDIATYFCQQGNSLPPTFGGGTKLEIK
Turning to B7, the binding entry in assay [1] and in assay [3] was “no binding (tested: ELISA value not >0.65)” each time.

B8: 20G11 (antibody, V domains shown)
VH: DVQLVESGGGLVQPGGSRKLSCAASGFTFSTFGIHWVRQAPEKGLEWVAYISYDSRTIYYADTVKGRFTISRDNPKNTLFLQMTSLRSEDTAMYYCARWAYEGGVNYFDNWGQGTTLTVSS
VL: QIVLTQSPAIMSASLGERVTMTCTATSGVSSSYLHWYQQKPGSSPKLWIYSSSNLASGVPARFSGSGSGTSYSLTIGSMEAEDAATYYCHQFHRSPLTFGTGTKVEIK
As to B8, the binding entry in assay [2] and in assay [3] was “no binding (tested: ELISA value not >0.65)” in each case.

B9: 3E11 (antibody, V domains shown)
VH: EIQLQQSGPELVKPGASVKVSCTASGYAFTKYNIYWVKQSHGKSLEWIGYIDPYTGGTISNQKFTGRATLTVDKSSSTAYLHLNSLTSEDSAVYYCARPGSYWYFGVWGAGTTVTVSS
VL: DILMTQTPLSLPVSLGDQASISCRSSQSIVYTNGNTNLEWYLQKPGQSPKLLIYKVSNRFSGVPDRFSGSGSGTDFTLKISRVEAEDLGVYYCFQASYVPFTFGSGTKVEIK
In the case of B9, the binding result in assay [1], in assay [2] and in assay [3] was “no binding (tested: ELISA value not >0.65)” throughout.

B10: 18G3 (antibody, V domains shown)
VH: VQLQESGPGLVKPSQSLSLTCNVTGYSITGDYAWNWIRQFPGNKLEWIGYIGYTGSTTYNPSLKSRVSITRDTSKNQFFLQLNSVTPEDTATYYCARWRNWAMDYWGLGTSVTVSS
VL: DIQMTQTPSSLSASLGDRVTISCRANQDISHYLNWYQQKPDGAVKLLIYYTSRIHSGVPSRFSGSGSGTDYSLTIANLEQEDVATYFCQQGNTPPTTFGGGTKVEIK
With B10, the binding entry in assay [1] and in assay [3] was “no binding (tested: ELISA value not >0.65)” throughout.

B11: 7D4.6 (antibody, V domains shown)
VH: DVQLQESGPGLVKPSQSLSLTCTVTGYSITSDYAWNWIRQFPRNKLEWMGYINYSGTTNYNPSLKSRISITRDTSKNQFFLQLISVTTEDTATYYCSYYRYDGAWFPYWGQGTLVTVSA
VL: DIQMTQSPASLSASVGETVTITCRASGNIHNYLAWYQQKQGKSPQLLVYNAIMLADGVPSRFSASGSGTQYSLKINSLQPEDFGSYYCQHFWSFPLTFGAGTKVEIK
Turning to B11, the binding result in assay [1], in assay [2] and in assay [3] was “no binding (tested: ELISA value not >0.65)” each time.

B12: 6F8.7 (antibody, V domains shown)
VH: DVQLQGSGPGLVKPSQSLSLTCSVTGYSITNDYYWNWIRQFPGNKLEWMGFISFGGSNNYNPSLKNRISITRDTSKNQFFLKLSSVTTEDTATYYCARYDGRGAWFAYWAQGTLVTVSA
VL: DIQMTQSPASLSASVGETVTITCRASGNIHNYLAWYQQKQGKSPQLLVYDAITLADGVPSRFSGSGSGTQYSLKINSLQPEDFGNYYCQHFWSFPLTFGAGTKVEIK
In the case of B12, the binding result in assay [1], in assay [2] and in assay [3] was “no binding (tested: ELISA value not >0.65)” throughout.

B13: 15F11 (antibody, V domains shown)
VH: EIQLQQSGPELVKPGASVRVSCKPSGYAFTSNNIYWVKQSRRKSLEWIGYIDPYIGRIIYNQQFKDKATLTVDKSSSTAYMHLNSLTSEDSAVYYCSRSGERSNFDYWGQGTTLTVSS
VL: EIVLTQSPTAMAASPGEKITITCSASSSISSNYLHWYQQKPGFSPKLLIYRTSNLASGVPARFSGSGSGTSYSLTIGPMEAEDVATYYCQQGGSLPLTFGAGTKVEIK
B13: the binding entry in assay [1], in assay [2] and in assay [3] was “no binding (tested: ELISA value not >0.65)” in each case.

B14: 1D5 (antibody, V domains shown)
VH: EIQLQQSGPELVKPGASVKVSCKASGYAFTSQNIYWVKQSHGKSLEWIGYIEPYNVVPMYNPKFKGKATLTVDKSSSSAYIHLNSLTSEDSAIYYCARSGSSNFDYWGQGTTLTVSS
VL: EIILTQSPTTMAASPGEKITITCSASSSISSHYLHWYQQKSGFSPKLLIYRTSNLASGVPARFSGSGSGTSYSLTIGTMEAEDVATYYCQQGSSLPLTFGAGTKVEIK
For the molecule B14, the binding entry in assay [1], in assay [2] and in assay [3] was “no binding (tested: ELISA value not >0.65)” in each case.

Values taken from patent US20200055939A1.
